Reference: publication PMC5716666
Results are given in words; binding and its absence hold for the method and conditions named. In cells and extracts the contact can be indirect. Binding can be weak; no strength is given.

Target: rat GST-syndapin III F-BAR (GST+Sdp III aa 1–336; extended F-BAR) (rat)
Assay: pull-down; agarose-coupled GST-fusion proteins of syndapin III; heart homogenate membrane pellets (100000 x g) solubilised by 1% TritonX-100 in PBS; 3 hr at 4°C; washed, eluted with SDS sample buffer, immunoblotted for cav3; only the target purified

B1: caveolin3 (protein, UniProt P51637 1-151)
chain: MMTEEHTDLEARIIKDIHCKEIDLVNRDPKNINEDIVKVDFEDVIAEPEGTYSFDGVWKVSFTTFTVSKYWCYRLLSTLLGVPLALLWGFLFACISFCHIWAVVPCIKSYLIEIQCISHIYSLCIRTFCNPLFAALGQVCSNIKVVLRREG
- binding: binds weakly
